Test results published in the supplement of paper PMC10849652.
The other results are listed elsewhere or left out.

Chains of the proteins cited; added tags and fusions are not shown. Lines headed by an entry give the natural chain unless they say otherwise; changes in a name come on top.
UniProt Q9UJ68: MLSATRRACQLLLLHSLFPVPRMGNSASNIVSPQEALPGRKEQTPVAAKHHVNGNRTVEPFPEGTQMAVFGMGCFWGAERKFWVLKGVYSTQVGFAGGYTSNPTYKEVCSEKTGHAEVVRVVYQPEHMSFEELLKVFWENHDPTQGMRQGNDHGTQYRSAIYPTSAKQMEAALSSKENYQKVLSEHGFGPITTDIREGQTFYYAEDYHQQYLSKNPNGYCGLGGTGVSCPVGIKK
UniProt P03897, whole entry, looked up: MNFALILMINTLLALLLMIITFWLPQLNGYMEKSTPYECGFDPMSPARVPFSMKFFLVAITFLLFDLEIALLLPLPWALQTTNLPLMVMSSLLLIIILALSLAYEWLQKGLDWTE
UniProt P03923, whole entry, looked up: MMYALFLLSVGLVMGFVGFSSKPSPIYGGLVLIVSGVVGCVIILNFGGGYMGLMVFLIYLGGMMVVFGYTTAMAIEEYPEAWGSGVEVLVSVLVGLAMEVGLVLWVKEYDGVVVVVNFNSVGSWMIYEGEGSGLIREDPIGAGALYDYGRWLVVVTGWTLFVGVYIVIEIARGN
UniProt O43312: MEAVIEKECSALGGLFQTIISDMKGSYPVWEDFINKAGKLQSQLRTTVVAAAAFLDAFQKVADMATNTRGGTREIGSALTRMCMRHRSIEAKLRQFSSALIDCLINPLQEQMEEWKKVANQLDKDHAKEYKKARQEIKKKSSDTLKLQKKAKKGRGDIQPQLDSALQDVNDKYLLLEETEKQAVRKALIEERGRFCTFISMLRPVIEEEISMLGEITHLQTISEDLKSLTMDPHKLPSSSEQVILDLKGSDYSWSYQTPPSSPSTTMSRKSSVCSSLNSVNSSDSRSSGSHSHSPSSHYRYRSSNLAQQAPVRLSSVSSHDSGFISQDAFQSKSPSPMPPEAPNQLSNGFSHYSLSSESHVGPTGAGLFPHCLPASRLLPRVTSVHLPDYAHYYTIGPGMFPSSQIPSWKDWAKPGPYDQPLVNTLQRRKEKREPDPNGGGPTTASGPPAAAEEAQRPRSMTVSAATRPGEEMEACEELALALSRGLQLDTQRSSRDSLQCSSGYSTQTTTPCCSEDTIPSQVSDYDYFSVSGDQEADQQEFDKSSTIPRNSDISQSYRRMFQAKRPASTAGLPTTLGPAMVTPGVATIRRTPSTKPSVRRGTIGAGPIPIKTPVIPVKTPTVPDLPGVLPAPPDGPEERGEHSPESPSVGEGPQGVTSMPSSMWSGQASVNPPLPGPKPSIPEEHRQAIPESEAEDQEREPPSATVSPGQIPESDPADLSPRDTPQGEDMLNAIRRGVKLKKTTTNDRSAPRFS
UniProt O15457: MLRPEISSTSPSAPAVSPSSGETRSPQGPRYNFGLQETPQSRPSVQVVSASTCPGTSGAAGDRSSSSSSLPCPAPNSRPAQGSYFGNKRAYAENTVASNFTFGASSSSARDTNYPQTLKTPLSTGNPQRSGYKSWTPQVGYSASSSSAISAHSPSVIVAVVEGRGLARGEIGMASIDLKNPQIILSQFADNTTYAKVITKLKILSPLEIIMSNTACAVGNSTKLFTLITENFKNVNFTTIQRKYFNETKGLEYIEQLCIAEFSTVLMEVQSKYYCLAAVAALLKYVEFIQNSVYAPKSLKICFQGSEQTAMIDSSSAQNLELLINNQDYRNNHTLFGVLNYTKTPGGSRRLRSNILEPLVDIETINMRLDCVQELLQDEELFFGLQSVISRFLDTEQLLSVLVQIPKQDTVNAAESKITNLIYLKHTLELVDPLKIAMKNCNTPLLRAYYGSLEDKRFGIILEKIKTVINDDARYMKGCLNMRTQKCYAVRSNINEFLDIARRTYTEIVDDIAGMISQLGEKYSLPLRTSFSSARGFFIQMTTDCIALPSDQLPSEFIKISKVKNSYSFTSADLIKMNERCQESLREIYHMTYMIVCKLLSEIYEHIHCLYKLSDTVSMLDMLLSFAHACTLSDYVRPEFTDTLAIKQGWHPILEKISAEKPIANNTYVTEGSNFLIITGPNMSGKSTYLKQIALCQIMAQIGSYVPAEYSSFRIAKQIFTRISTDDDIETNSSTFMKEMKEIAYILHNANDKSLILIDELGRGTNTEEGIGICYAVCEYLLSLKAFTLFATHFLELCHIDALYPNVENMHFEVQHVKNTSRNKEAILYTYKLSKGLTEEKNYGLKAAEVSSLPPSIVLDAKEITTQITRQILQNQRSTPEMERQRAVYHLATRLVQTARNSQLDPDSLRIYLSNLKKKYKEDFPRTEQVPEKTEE
UniProt Q9H903: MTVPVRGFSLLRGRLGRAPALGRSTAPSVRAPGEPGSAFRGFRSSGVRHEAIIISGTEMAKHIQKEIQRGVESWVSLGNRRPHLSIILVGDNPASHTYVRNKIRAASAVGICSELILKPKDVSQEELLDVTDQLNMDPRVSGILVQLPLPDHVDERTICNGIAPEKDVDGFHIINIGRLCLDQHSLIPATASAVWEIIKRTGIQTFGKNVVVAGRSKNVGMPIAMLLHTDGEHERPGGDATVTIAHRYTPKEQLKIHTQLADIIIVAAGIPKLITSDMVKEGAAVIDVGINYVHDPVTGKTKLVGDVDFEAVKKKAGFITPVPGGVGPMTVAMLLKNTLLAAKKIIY
UniProt Q6P1R3: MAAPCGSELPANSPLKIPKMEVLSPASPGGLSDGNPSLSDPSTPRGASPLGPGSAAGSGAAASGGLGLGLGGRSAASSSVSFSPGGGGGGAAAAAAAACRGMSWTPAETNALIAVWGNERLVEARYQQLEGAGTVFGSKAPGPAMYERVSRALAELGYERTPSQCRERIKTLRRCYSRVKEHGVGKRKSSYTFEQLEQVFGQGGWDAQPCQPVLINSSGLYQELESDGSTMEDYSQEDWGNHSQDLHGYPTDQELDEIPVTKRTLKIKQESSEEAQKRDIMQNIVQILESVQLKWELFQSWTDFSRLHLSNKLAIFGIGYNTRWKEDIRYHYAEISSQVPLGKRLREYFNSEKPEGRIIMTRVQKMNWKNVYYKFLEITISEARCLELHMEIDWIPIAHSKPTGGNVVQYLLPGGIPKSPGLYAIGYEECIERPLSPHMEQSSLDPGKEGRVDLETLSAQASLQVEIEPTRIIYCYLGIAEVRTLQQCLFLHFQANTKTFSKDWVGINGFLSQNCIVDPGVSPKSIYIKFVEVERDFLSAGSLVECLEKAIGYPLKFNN
UniProt O75570: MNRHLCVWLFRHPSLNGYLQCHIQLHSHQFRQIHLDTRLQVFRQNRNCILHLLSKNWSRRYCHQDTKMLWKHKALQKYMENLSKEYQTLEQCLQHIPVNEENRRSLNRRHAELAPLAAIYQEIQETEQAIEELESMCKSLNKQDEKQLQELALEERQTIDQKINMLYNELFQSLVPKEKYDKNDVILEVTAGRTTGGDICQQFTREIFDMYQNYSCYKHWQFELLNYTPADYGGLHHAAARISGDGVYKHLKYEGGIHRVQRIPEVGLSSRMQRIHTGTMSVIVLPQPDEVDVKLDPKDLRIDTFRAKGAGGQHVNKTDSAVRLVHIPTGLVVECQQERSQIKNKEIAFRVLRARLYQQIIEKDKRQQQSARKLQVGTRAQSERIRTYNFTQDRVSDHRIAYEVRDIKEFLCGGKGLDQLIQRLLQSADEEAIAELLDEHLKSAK
UniProt Q9NYA4: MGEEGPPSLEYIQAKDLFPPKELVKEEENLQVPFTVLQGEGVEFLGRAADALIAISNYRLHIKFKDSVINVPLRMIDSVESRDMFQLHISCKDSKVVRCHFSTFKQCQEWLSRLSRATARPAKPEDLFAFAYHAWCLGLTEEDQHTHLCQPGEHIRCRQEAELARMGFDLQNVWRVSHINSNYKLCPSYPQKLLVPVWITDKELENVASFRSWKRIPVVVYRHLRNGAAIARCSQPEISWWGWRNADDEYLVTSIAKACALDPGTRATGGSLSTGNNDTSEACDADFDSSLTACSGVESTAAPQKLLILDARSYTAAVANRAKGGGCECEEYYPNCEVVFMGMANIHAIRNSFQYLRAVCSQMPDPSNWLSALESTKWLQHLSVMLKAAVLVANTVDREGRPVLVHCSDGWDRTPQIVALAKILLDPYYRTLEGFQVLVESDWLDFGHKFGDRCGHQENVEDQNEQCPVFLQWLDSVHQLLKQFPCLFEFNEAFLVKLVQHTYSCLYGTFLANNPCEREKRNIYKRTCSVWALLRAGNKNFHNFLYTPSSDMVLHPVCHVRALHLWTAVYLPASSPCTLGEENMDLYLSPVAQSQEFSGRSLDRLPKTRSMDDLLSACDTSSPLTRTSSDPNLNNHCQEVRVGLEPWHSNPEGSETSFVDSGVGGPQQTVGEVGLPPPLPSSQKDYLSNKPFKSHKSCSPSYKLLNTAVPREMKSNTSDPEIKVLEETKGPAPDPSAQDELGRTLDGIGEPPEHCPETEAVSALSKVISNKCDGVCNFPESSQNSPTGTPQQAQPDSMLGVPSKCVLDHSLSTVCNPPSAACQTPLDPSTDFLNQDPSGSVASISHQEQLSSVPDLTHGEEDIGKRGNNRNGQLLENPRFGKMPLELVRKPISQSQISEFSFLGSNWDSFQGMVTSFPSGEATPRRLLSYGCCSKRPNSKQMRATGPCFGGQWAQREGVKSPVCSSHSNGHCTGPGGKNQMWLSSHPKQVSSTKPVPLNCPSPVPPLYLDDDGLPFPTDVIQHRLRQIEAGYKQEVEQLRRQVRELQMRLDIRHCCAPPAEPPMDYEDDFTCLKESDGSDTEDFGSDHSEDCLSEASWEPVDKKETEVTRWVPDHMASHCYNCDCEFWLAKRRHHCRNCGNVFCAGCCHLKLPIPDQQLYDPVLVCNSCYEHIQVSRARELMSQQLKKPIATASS
UniProt Q9HD23: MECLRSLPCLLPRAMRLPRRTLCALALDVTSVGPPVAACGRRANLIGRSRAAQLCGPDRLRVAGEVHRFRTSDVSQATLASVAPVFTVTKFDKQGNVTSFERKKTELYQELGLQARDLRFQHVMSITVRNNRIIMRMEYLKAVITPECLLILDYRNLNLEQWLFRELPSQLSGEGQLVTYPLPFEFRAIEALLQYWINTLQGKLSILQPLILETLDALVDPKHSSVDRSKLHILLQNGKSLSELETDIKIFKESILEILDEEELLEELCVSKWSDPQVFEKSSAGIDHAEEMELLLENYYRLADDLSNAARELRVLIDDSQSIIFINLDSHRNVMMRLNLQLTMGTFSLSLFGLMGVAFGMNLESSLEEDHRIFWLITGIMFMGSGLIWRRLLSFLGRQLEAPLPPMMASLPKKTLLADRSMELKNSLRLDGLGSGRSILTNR
UniProt Q2M296: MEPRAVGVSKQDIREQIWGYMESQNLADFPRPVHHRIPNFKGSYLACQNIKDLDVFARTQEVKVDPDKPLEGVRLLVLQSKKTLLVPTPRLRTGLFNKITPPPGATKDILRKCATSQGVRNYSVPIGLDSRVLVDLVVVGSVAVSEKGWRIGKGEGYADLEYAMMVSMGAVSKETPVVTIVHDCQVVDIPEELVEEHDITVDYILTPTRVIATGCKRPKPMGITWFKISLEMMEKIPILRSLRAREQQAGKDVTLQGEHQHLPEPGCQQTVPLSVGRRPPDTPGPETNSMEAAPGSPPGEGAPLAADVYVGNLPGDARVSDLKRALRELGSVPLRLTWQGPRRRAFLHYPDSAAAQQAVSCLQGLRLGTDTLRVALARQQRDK
UniProt Q93083: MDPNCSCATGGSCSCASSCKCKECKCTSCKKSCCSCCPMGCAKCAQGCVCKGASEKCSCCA

Columns and labels:
Experiment in all cases: log2 fold change, soluble protein after heating vs DMSO (PISA); higher = thermal stabilisation; K562 lysate, 10 uM; active = over 0.2 and 3.5 SD of the protein, either way, in both replicates (recomputed)
[1] = compound: C1CCN(C1)C(=O)NC2=CC=CC(=C2)NC3=NC=C(C(=N3)NCCC4=CN=CN4)Br
How it was run: (§1)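 Following dounce homogenisation of K562 pellets in PBS pH 7.4 with 1 mM MgCl2, crude extract at 1 mg/mL protein was incubated for 30 min with 10 μM compound. Aliquots were then heated for 3 min over 48°C-58°C and pooled, NP-40 was added to 0.5% at 4°C, and soluble protein was recovered as the supernatant at 21,000xg for 90 min. Channel-sum-equalised TMTpro 16plex LC-MS/MS quantified this protein. Each value, from duplicates, is a log-two fold change in thermal stability relative to solvent controls.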

[2] = compound: C1CN(CCC1(CC2=CC=C(C=C2)Cl)N)C3=NC=NC4=C3C=CN4
How it was run: as §1

[3] = compound: CC(=O)c1cnc2ccc(-c3cc(Cl)c(O)c(Cl)c3)nc2c1N[C@H]1CC[C@H](CN(C)C)CC1
How it was run: as §1

[4] = compound: CC1=CC=C(C=C1)SC2=C3C=C(SC3=CN=C2)C(=O)N
How it was run: as §1

erlotinib = compound: C#Cc1cccc(Nc2ncnc3cc(OCCOC)c(OCCOC)cc23)c1 [erlotinib]
How it was run: as §1

[5] = compound: C1=CC(=CC=C1C2=NC3=C(N2)C=C(C=C3)C(=O)N)OC4=CC=C(C=C4)Cl
How it was run: as §1

[6] = compound: C1=CC2=NC=CN=C2C=C1/C=C/3\C(=O)NC(=O)S3
How it was run: as §1

[7] = compound: C1=CC=C(C=C1)C2=NC(=C(N2)C3=CC=NC=C3)C4=CC(=C(C=C4)Cl)O
How it was run: as §1

IRAK-1-4 Inhibitor I = compound: C1COCCN1CCN2C3=CC=CC=C3N=C2NC(=O)C4=CC(=CC=C4)[N+](=O)[O-] [IRAK-1-4 Inhibitor I]
How it was run: as §1

ibrutinib = compound: C=CC(=O)N1CCC[C@@H](n2nc(-c3ccc(Oc4ccccc4)cc3)c3c(N)ncnc32)C1 [ibrutinib]
How it was run: as §1

ralimetinib = compound: CC(C)(C)Cn1c(N)nc2ccc(-c3[nH]c(C(C)(C)C)nc3-c3ccc(F)cc3)nc21 [ralimetinib]
How it was run: as §1

[8] = compound: CC(C)(O)CC(=O)NCCn1ccc2ncnc(Nc3ccc(Oc4cccc(C(F)(F)F)c4)c(Cl)c3)c21
How it was run: as §1

[9] = compound: CC(C)C1=C2N=C(C=C(N2N=C1)NCC3=CC=CC=C3)NCCCCCCN
How it was run: as §1

[10] = compound: CC1=C(C(CC(=O)N1)C2=CC=C(C=C2)C(F)(F)F)C(=O)NC3=C(C=C4C(=C3)C=NN4)F
How it was run: as §1

[11] = compound: CC1=C(C=C(C=C1)NC(=O)C2=CC(=CC=C2)C(C)(C)C#N)NC3=CC4=C(C=C3)N=CN(C4=O)C
How it was run: as §1

[12] = compound: CC1=C(C=C(C=C1)NC(=O)C2=CC(=CC=C2)N(C)C)NC(=O)C3=CC=C(C=C3)O
How it was run: as §1

[13] = compound: CC1=C(C2=C(C=C1)C(=O)C3=CC=CC=C3N2CCCN)C
How it was run: as §1

[14] = compound: C/C(=N\NC(=O)C1=CC(=CC=C1)S(=O)(=O)N2CCOCC2)/C3=C(C=CC(=C3)Cl)O
How it was run: as §1

[15] = compound: C1=CC2=C(C=CC(=C2)/C=C\3/C(=O)NC(=NCC4=CC=CS4)S3)N=C1
How it was run: as §1

[16] = compound: C1=CC=C2C(=C1)C3=NNC4=CC=CC(=C43)C2=O
How it was run: as §1

Measured: log2 fold change

MSRA (UniProt Q9UJ68)
inactive: [1] -0.016 | [2] 0.172 | [3] 0.015 | [4] 0.229

MT-ND3 (UniProt P03897)
inactive: erlotinib 0.178 | [5] -0.172 | [6] -0.075 | [7] -0.228 | [1] -0.165 | [2] -0.019 | IRAK-1-4 Inhibitor I -0.239 | ibrutinib -0.442 | [3] -0.137 | ralimetinib -0.123 | [8] 0.207 | [9] -0.147 | [10] 0.046 | [11] -0.028 | [12] -0.142 | [4] -0.287

MT-ND6 (UniProt P03923)
inactive: erlotinib 0.039 | [5] 0.009 | [7] 0.048 | IRAK-1-4 Inhibitor I -0.044 | [3] -0.06 | ralimetinib -0.128 | [8] -0.165 | [9] -0.159 | [11] 0.076 | [12] 0.083 | [4] -0.064

MTSS1 isoform 5 (UniProt O43312)
inactive: [7] -0.591 | IRAK-1-4 Inhibitor I -1.35 | [3] -0.408 | ralimetinib -0.165 | [8] 0.617 | [10] -0.024 | [13] 0.486 | [11] -0.001 | [12] 0.318 | [4] 0.507

MSH4 (UniProt O15457)
inactive: [14] -0.034 | [15] 0.118 | [7] 0.118 | [16] 0.063 | IRAK-1-4 Inhibitor I 0.151 | ralimetinib -0.005 | [8] 0.123 | [12] -0.194

MTHFD1 (UniProt V9GZ32)
inactive: [3] 0.045 | [10] -0.18 | [4] 0.088

MTHFD2L (UniProt Q9H903)
inactive: erlotinib -0.057 | [5] 0.017 | [6] 0.256 | ibrutinib 0.044 | [9] -0.093 | [11] 0.059

Reprinted from the listing (5 entries):
MT-ND6 (UniProt P03923)
inactive: erlotinib 0.039 | [5] 0.009 | [7] 0.048 | IRAK-1-4 Inhibitor I -0.044 | [3] -0.06 | ralimetinib -0.128 | [8] -0.165 | [9] -0.159 | [11] 0.076 | [12] 0.083 | [4] -0.064

MTSS1 isoform 5 (UniProt O43312)
inactive: [7] -0.591 | IRAK-1-4 Inhibitor I -1.35 | [3] -0.408 | ralimetinib -0.165 | [8] 0.617 | [10] -0.024 | [13] 0.486 | [11] -0.001 | [12] 0.318 | [4] 0.507

MSH4 (UniProt O15457)
inactive: [14] -0.034 | [15] 0.118 | [7] 0.118 | [16] 0.063 | IRAK-1-4 Inhibitor I 0.151 | ralimetinib -0.005 | [8] 0.123 | [12] -0.194

MTHFD1 (UniProt V9GZ32)
inactive: [3] 0.045 | [10] -0.18 | [4] 0.088

MTHFD2L (UniProt Q9H903)
inactive: erlotinib -0.057 | [5] 0.017 | [6] 0.256 | ibrutinib 0.044 | [9] -0.093 | [11] 0.059

Additional entries:

MRPS15 (UniProt P82914)
inactive: erlotinib 0.06 | [5] -0.011 | [6] 0.004 | [7] -0.029 | [1] -0.075 | [2] -0.016 | IRAK-1-4 Inhibitor I -0.022 | ibrutinib -0.053 | [3] -0.072 | ralimetinib 0.039 | [8] -0.019 | [9] 0.032 | [10] 0.018 | [13] -0.152 | [11] 0.02 | [12] 0.048 | [4] -0.141

MSANTD2 (UniProt Q6P1R3)
inactive: erlotinib -0.002 | [14] 0.106 | [5] 0.042 | [15] -0.112 | [16] -0.033 | [1] -0.126 | [2] 0.208 | [9] -0.041 | [13] -0.136 | [11] -0.032

MTRF1 isoform 2 (UniProt O75570)
inactive: [11] 0.047

MRPL34 (UniProt Q9BQ48)
inactive: [6] -0.017 | [1] -0.002 | [2] -0.137 | ibrutinib 0.047 | [3] -0.078 | [13] -0.019 | [11] 0.044 | [4] 0.104

MTMR4 (UniProt Q9NYA4)
inactive: erlotinib 0.054 | [14] 0.213 | [5] -0.122 | [15] 0.018 | [7] -0.091 | [16] -0.35 | IRAK-1-4 Inhibitor I -0.002 | [3] -0.011 | ralimetinib -0.029 | [8] -0.07 | [9] 0.049 | [10] 0.062 | [13] 0.006 | [11] -0.162 | [12] 0.031 | [4] -0.017

MRPS21 (UniProt P82921)
inactive: [14] 0.049 | [15] 0.036 | [6] -0.051 | [16] -0.077 | [1] 0.022 | [2] -0.119 | ibrutinib -0.277 | [3] -0.029 | [10] 0.208 | [13] -0.117 | [11] 0.081 | [4] 0.181

MRS2 isoform 2 (UniProt Q9HD23)
inactive: [10] 0.07 | [11] 0.088

MTHFSD (UniProt Q2M296)
inactive: erlotinib -0.087 | [5] -0.041 | [6] 0.005 | [1] 0.001 | [2] 0.096 | ibrutinib 0.051 | [3] -0.017 | [9] 0.051 | [10] 0.059 | [13] -0.277 | [11] -0.029 | [4] 0.03

MTHFR (UniProt F8W9T8)
inactive: [6] -0.211 | ibrutinib 0.176 | [10] 0.037

MUC19 (UniProt Q7Z5P9)
inactive: [6] -0.051 | [7] 0.107 | IRAK-1-4 Inhibitor I 0.138 | ibrutinib 0.023 | [3] -0.052 | ralimetinib -0.194 | [8] -0.177 | [12] 0.023 | [4] -0.01

MRPL24 (UniProt Q96A35)
inactive: erlotinib -0.033 | [14] 0.036 | [5] 0.122 | [15] 0.092 | [7] 0.027 | [16] -0.034 | [1] -0.034 | [2] -0.123 | IRAK-1-4 Inhibitor I -0.058 | [3] -0.018 | ralimetinib 0.028 | [8] 0.013 | [9] 0.062 | [10] -0.003 | [13] -0.143 | [11] 0.001 | [12] 0.038 | [4] 0.004

MT1L (UniProt Q93083)
inactive: [6] -0.397 | ibrutinib 0.246 | [11] -0.031
